Measurements: US20220354119A1, “COMPOSITION OF A RHEOLOGY MODIFIER AND DIHALOHYDANTOIN” (Rohm and Haas Company, priority 2019, published 2022)
Where a name gives a salt, the structure may show the parent alone. At least one compound was matched to its structure with a doubt left.

Experiment: Heat age stability of HEUR-biocide formulation (appearance after heat aging)
Assay type: physicochemical
Conditions: biocide admixed with HEUR rheology modifier (RM-2020E or RM-8W); oven 50° C. for 2 weeks
Description: A number of biocides were admixed with ACRYSOL™ RM-2020E Rheology Modifier (RM-2020E, A Trademark of The Dow Chemical Company or Its Affiliates) and ACRYSOL™ RM-8W (RM-8W). In addition to testing biocides admixed with RM-2020E or RM-8W as-delivered, acid was also added to the rheology modifiers to lower the pH to approximately 4.5. Samples prepared with the biocide didecyldimethylammonium chloride were only tested when RM-2020E and RM-8W were prepared with 10-15% surfactant in the composition. The compositions were heat-aged in an oven maintained at 50° C. for 2 weeks. Heating aging was also carried out for RM-2020E in the absence of any biocide. If the composition failed the heat aging test, it was not tested for efficacy.
All heat aged samples were compared against a reference HEUR (RM-2020E or
The pass/fail criterion for biocide efficacy was determined by the formation of less than 1×10^4 colony forming units per mL (CFU/mL) of sample tested.

## CCCCCCCCCCCCNC(=N)N [Dodecylguanidine Hydrochloride]
  Sample Appearance after Heat Age testing: unchanged
